# Literature values, collected in US12622881B2, “Water-soluble topical ophthalmic preparation containing lutein and production method thereof” (Omisan Farmaceutici S.R.L., priority 2021, dated 2026).
# Some results were stated once for a whole list of compounds, not compound by compound. For at least one compound, name, drawing or mass did not settle the structure.
# Tested on: human lens epithelial cells
# Conditions: pretreatment of cell cultures before UVB exposure, compared to control cells treated with UVB only; cited from earlier work
row,Compound,reduction of lipid peroxidation
1,"Cc1c(C)c2c(c(C)c1O)CC[C@@](C)(CCC[C@H](C)CCC[C@H](C)CCCC(C)C)O2 [vitamin E, α-tocopherol]",47-57%
2,"CC1=C[C@H](O)CC(C)(C)C1/C=C/C(C)=C/C=C/C(C)=C/C=C/C=C(C)/C=C/C=C(C)/C=C/C1=C(C)C[C@@H](O)CC1(C)C (stereo partly drawn) [lutein, β, ε-caroten-3,3′-diol]",47-57%
